Laboratory results: PubChem BioAssay AID1259405 (NCATS, 2018)

Aim: 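Mouse-designed siRNAs used to find CHO productivity engineering targets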 (primary screen)
Cells: Chinese hamster CHO-K1 ovary cells with stable secreted eGFP expression
Reagent: single siRNA against mouse genes, 0.8 pmol siRNA per well (2 µl of 400 nM stock)
Duration: 3 days
Measured: 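Per-well intracellular GFP measured by laser scanning cytometry, plus viability from ATP luminescence, each relative to plate median of non-targeting control wells, in %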
Scale: GFP, % of control: higher = more GFP per well, higher productivity; viability (ATP), % of control: higher = more viable cells (more ATP)
Call rule: 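Called active when intracellular GFP, relative to negative control, is at or above 120%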
The whole screen tested about 50,000 reagents; this is a part drawn at random. Over the whole deposit, about 4,000 (8%) were called active. 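Mouse siRNA library applied to hamster cells; one well for each siRNA.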 No sequences are given here.

With knock-down of Vim (GeneID 22352) [SID363572145] the results were GFP, % of control 47.6; viability (ATP), % of control 49.6; inactive.
After knock-down of Vim (GeneID 22352) [SID363573905], the screen gave GFP, % of control 3.85; viability (ATP), % of control 10.8; inactive.
Against Il2ra (GeneID 16184) [SID363568701], the entry reads GFP, % of control 78.8; viability (ATP), % of control 72.7; inactive.
Il2ra (GeneID 16184) [SID363576093] showed GFP, % of control 103; viability (ATP), % of control 86.4; inactive.
Knock-down of Il2ra (GeneID 16184) [SID363578909] came out at: GFP, % of control 67.8; viability (ATP), % of control 48.6; inactive.
Vrk1 (GeneID 22367) [SID363571369] showed GFP, % of control 72.7; viability (ATP), % of control 96.6; inactive.
Against Vrk1 (GeneID 22367) [SID363571721], the values are GFP, % of control 57.6; viability (ATP), % of control 64.3; inactive.
Vrk1 (GeneID 22367) [SID363572073] showed GFP, % of control 82.8; viability (ATP), % of control 78.4; inactive.
After knock-down of Lhx3 (GeneID 16871) [SID363573864], the screen gave GFP, % of control 67.4; viability (ATP), % of control 82; inactive.
Knock-down of Lhx3 (GeneID 16871) [SID363581608] resulted in: GFP, % of control 75.1; viability (ATP), % of control 76.6; inactive.
Knock-down of Lhx3 (GeneID 16871) [SID363584072] came out at: GFP, % of control 41.4; viability (ATP), % of control 59.6; inactive.
After knock-down of Psmb3 (GeneID 26446) [SID363574429] the results were GFP, % of control 10.2; viability (ATP), % of control 4.6; inactive.
Against Psmb3 (GeneID 26446) [SID363575485], the entry reads GFP, % of control 2.77; viability (ATP), % of control 1.35; inactive.
After knock-down of Psmb3 (GeneID 26446) [SID363580061], the screen gave GFP, % of control 64.3; viability (ATP), % of control 55.6; inactive.
For Or4c15b (GeneID 257921) [SID363554178], the values are GFP, % of control 86.7; viability (ATP), % of control 87.6; inactive.
Depletion of Or4c15b (GeneID 257921) [SID363567625] came out at: GFP, % of control 89.3; viability (ATP), % of control 75.8; inactive.
After knock-down of Or4c15b (GeneID 257921) [SID363584982], the record shows GFP, % of control 56.2; viability (ATP), % of control 74.2; inactive.

Only “GFP, % of control”, for 2 of the entries above:
Psmb3 (GeneID 26446) [SID363580061]	64.3
Or4c15b (GeneID 257921) [SID363554178]	86.7
